The series can be described thus: Leaching of rhodium and phosphorus into the organic product phase and partitioning of rhodium species (ICP-AAS). The note with it: for rhodium concentration in the product phase: by weight, after phase separation; for Leaching P / Leaching Rh: at T = 0° C. The text has this: Rhodium leaching into the organic phase (as determined by ICP-AAS) was low. On average 0.12% of Rh per cycle was lost corresponding to a rhodium concentration of 3 ppm (by weight) in the product phase. Over 9 cycles only 1% of rhodium was lost despite of the phase separation method used. Leaching was higher for less fluorous pre-catalyst H{1,6}: 0.3% (6 ppm) of rhodium was present in the organic phase after phase separation.
The amount of leached rhodium allows to calculate the average partition coefficients (P) of the rhodium species present during phase separation (Table 6). […] Chem. Soc. 1999, 121, 2696-2704.). […] Chem. Int. Ed. Engl. 1997, 36, 1610-1612).
The retention of free uncoordinated fluorous phosphine can be used for recycling the intact catalyst system.
Only catalysts prepared through method 1 were used. Catalytic reactions were carried out under single phase fluorous conditions in c-CF3C6F11 (2 mL) at 80° C. After >90% conversion (monitored by the H2 uptake) the homogeneous reaction mixture was cooled to 0° C. and the upper organic layer was siphoned of. In between cycles the fluorous layer was kept under H2 atmosphere. By warming up to 80° C. and addition of a fresh portion of 1-octene (12.74 mmol) a new cycle was started. The organic phases resulting from the first cycle were analyzed by GC and ICP-AAS.

[1] abbreviates: cycle 8, high value due to experimental error during phase separation.
The mark [2] stands for this setting: cycle 9, fresh c-CF3C6F11 added.

SMILES strings stand for the structures. Marks after values point to notes of the source that are not given here.

`C[Si](C)(CCC(F)(F)C(F)(F)C(F)(F)C(F)(F)C(F)(F)C(F)(F)F)c1ccc([PH](c2ccc([Si](C)(C)CCC(F)(F)C(F)(F)C(F)(F)C(F)(F)C(F)(F)C(F)(F)F)cc2)(c2ccc([Si](C)(C)CCC(F)(F)C(F)(F)C(F)(F)C(F)(F)C(F)(F)C(F)(F)F)cc2)[Rh]([Cl])([PH](c2ccc([Si](C)(C)CCC(F)(F)C(F)(F)C(F)(F)C(F)(F)C(F)(F)C(F)(F)F)cc2)(c2ccc([Si](C)(C)CCC(F)(F)C(F)(F)C(F)(F)C(F)(F)C(F)(F)C(F)(F)F)cc2)c2ccc([Si](C)(C)CCC(F)(F)C(F)(F)C(F)(F)C(F)(F)C(F)(F)C(F)(F)F)cc2)[PH](c2ccc([Si](C)(C)CCC(F)(F)C(F)(F)C(F)(F)C(F)(F)C(F)(F)C(F)(F)F)cc2)(c2ccc([Si](C)(C)CCC(F)(F)C(F)(F)C(F)(F)C(F)(F)C(F)(F)C(F)(F)F)cc2)c2ccc([Si](C)(C)CCC(F)(F)C(F)(F)C(F)(F)C(F)(F)C(F)(F)C(F)(F)F)cc2)cc1` [H{1,6}, (D{1,6})3RhCl]: the “fluorous phosphine in the alkane product phases, share of total phosphorus in precatalyst” value stood at 8%; the “fluorous phosphine present in the alkane product phases” value turned out to be 130 ppm; the “rhodium present in the organic phase after phase separation” value worked out at 0.3%; the “rhodium concentration in the product phase” value amounted to 6 ppm. Moreover, under “cycle 1, [1-octene]/[Rh] = 559”, the “Leaching P” value is 8.1% and the “Leaching Rh” value is given as 0.27%.
Regarding `C[Si](C)(CCC(F)(F)C(F)(F)C(F)(F)C(F)(F)C(F)(F)C(F)(F)C(F)(F)C(F)(F)F)c1ccc(P(c2ccc([Si](C)(C)CCC(F)(F)C(F)(F)C(F)(F)C(F)(F)C(F)(F)C(F)(F)C(F)(F)C(F)(F)F)cc2)c2ccc([Si](C)(C)CCC(F)(F)C(F)(F)C(F)(F)C(F)(F)C(F)(F)C(F)(F)C(F)(F)C(F)(F)F)cc2)cc1.C[Si](C)(CCC(F)(F)C(F)(F)C(F)(F)C(F)(F)C(F)(F)C(F)(F)C(F)(F)C(F)(F)F)c1ccc(P(c2ccc([Si](C)(C)CCC(F)(F)C(F)(F)C(F)(F)C(F)(F)C(F)(F)C(F)(F)C(F)(F)C(F)(F)F)cc2)c2ccc([Si](C)(C)CCC(F)(F)C(F)(F)C(F)(F)C(F)(F)C(F)(F)C(F)(F)C(F)(F)C(F)(F)F)cc2)cc1.C[Si](C)(CCC(F)(F)C(F)(F)C(F)(F)C(F)(F)C(F)(F)C(F)(F)C(F)(F)C(F)(F)F)c1ccc(P(c2ccc([Si](C)(C)CCC(F)(F)C(F)(F)C(F)(F)C(F)(F)C(F)(F)C(F)(F)C(F)(F)C(F)(F)F)cc2)c2ccc([Si](C)(C)CCC(F)(F)C(F)(F)C(F)(F)C(F)(F)C(F)(F)C(F)(F)C(F)(F)C(F)(F)F)cc2)cc1.[Cl][Rh]` [H{1,8}, (D{1,8})3RhCl], the “fluorous phosphine in the alkane product phases, share of total phosphorus in precatalyst” value amounted to 3%; the “fluorous phosphine present in the alkane product phases” value was 64 ppm; the “rhodium lost over 9 cycles” value came to 1%; the “rhodium concentration in the product phase” value is on record as 3 ppm. Further, under “cycle 1, [1-octene]/[Rh] = 365”, the “Leaching P” value is on record as 2.34% and the “Leaching Rh” value came to 0.11%. For the same compound, under “cycle 2”, the “Leaching P” value is recorded as 2.06% and the “Leaching Rh” value is recorded as 0.05%. Also, where the note is “cycle 3”, the “Leaching P” value was 3.24% and the “Leaching Rh” value amounted to 0.10%. Moreover, under “cycle 4”, the “Leaching P” value turned out to be 3.20% and the “Leaching Rh” value is 0.11%. Besides, for the setting “cycle 5”, the “Leaching P” value is 3.52% and the “Leaching Rh” value is listed as 0.18%. In addition, where the note is “cycle 6”, the “Leaching P” value is on record as 2.15% and the “Leaching Rh” value was 0.08%. Further, where the note is “cycle 7”, the “Leaching P” value was found to be 2.34% and the “Leaching Rh” value is given as 0.05%. Under setting [1], the “Leaching P” value is 4.70^e % and the “Leaching Rh” value was 0.33^e %. Also, under setting [2], the “Leaching P” value is given as 3.41% and the “Leaching Rh” value came out at 0.08%. Moreover, the “Rh lost per cycle, on average” value (leaching into the organic phase, ICP-AAS) was found to be 0.12%.
